Data from publication PMC12040169 (PLOS Biology, 2025).
Where two headings read alike, the source gives them in different places. The list shows a part of the results.

System: T1, CTL2-GFP (C. trachomatis L2/434/Bu, GFP-expressing)
T1 construct: L2/434/Bu, GFP-expressing
Parameters: species or system HeLa; Intracellular C. trachomatis growth in HeLa cells, bulk GFP fluorescence relative to DMSO
Settings: bulk GFP, single well, 28.5 h, 10 µM, inhibitor

Structure (SMILES) | % of control remaining [%] | % of control remaining (Bulk GFP fluorescence) [%]
Cc1nc(C2CC(O)C2)cc(N2CCC(C(=O)N3CCOCC3)CC2)n1 (stereo not drawn) [CBK307675] | 163.159 | –
COc1ccc(-c2ccc(CCC(=O)O)n2Cc2ccco2)cc1 [CBK265945] | 100 | –
Cc1nnc2sc(-c3ccncc3)nn12 [CBK269553] | 144.948 | –
CC1(C)C[C@H](NC(=O)C2CC2)[C@@]2(CCC(=O)N3CCCC3)CC[C@](C)(O)C[C@@H]12 [CBK289044] | 118.989 | –
Cn1cc(C2CCCCCN2C(=O)c2ccc(F)cc2)cn1 (stereo not drawn) [CBK284913] | 154.021 | –
O=C(Nc1cccnc1)c1ncoc1-c1ccc(F)cc1 [CBK104357] | 152.36 | –
CCN(CC)CCNC(=O)N(CC)Cc1ccncc1 [CBK155151] | 97.5874 | –
CCC(CNC(=O)c1coc(COc2ccc3sc(C)nc3c2)n1)OC (stereo not drawn) [CBK307248] | 139.687 | –
Nc1ncc(-c2cccc3ccccc23)nc1NC1CCCCC1 [CBK063588] | 127.347 | –
CC1=CC(C)C(C(=O)O)C(C(=O)N2CCN(C)CC2)C1 (stereo not drawn) [CBK027311] | – | 97.1773
COc1cc(C)ccc1S(=O)(=O)n1cnc2cc(C)c(C)cc21 [CBK287580] | 139.023 | –
O=C(NCCc1noc(CO)n1)N(Cc1ccsc1)C1CCCCC1 [CBK307273] | 103.177 | –
O=C(Nc1cccc(-c2nc3ncccc3o2)c1)c1ccc(OCc2ccccc2)cc1 [CBK263139] | 112.493 | –
O=C(Cc1c[nH]c2ccccc12)N1CCC2(CCN(C(=O)CC3CCCCC3)C2)C1 (stereo not drawn) [CBK131422] | 107.486 | –
CCCc1nnc([C@H]2CCN(Cc3ccc(S(C)(=O)=O)cc3)C2)o1 [CBK289402] | 102.004 | –
COC(=O)CNC(=O)c1ccc(S(=O)(=O)N2CCCC2)cc1 [CBK264880] | 100 | –
CC1=C[C@@H](CO)[C@H](C(C)C)C[C@H]1Cc1nnc(-c2ccc(N(C)C)cc2)o1 [CBK289224] | 87.4533 | –
CN(C)c1cccc(-c2cc(NC3CCCCC3)ncn2)c1 [CBK090900] | 147.241 | –
O=C(O)CCC(=O)N1CCN(C2CCCCC2)CC1 [CBK286918] | 89.8755 | –
Cc1cc(C)nc(SCc2nc(N)nc(-c3ccccc3O)n2)n1 [CBK266725] | 165.286 | –
Cc1cccn2c(=O)c(/C=C3\SC(=S)NC3=O)c(NCCCN3CCOCC3)nc12 [CBK264904] | 100 | –
c1ccc(-c2csc3ncnc(-n4cnc5ccccc54)c23)cc1 [CBK264494] | 99.7565 | –
Nc1nnc(Sc2nccc(C(F)(F)F)n2)s1 [CBK020023] | 106.801 | –
Cc1ccc(C(=O)NC(=S)Nc2ccc(C(=O)O)c(Cl)c2)cc1Cl [CBK265068] | 108.328 | –
COC(=O)CCc1ccc(S(=O)(=O)N2CCCN(Cc3c[nH]c(=O)[nH]c3=O)CC2)cc1 [CBK063082] | 77.4726 | –
N#Cc1ccc(CN2CCCCC2c2[nH]ncc2C(N)=O)c(Cl)c1 (stereo not drawn) [CBK304261] | 111.014 | –

Structure (SMILES) | % of control remaining [%] | % of control remaining (Bulk GFP fluorescence) [%]
Cc1cccc(CN2CCC(NC(=O)c3cn(C(C)(C)C)nn3)CC2)c1 [CBK305927] | 101.182 | –
C=CCn1c(-c2sc(NC(=O)CNC(=O)C(C)(C)C)nc2C)n[nH]c1=S [CBK297907] | 108.538 | –
Cc1cc(CNC(=O)C2CC(=O)N(Cc3ccccn3)C2)ccc1F (stereo not drawn) [CBK305557] | 169.277 | –
Nc1n[nH]c(=O)c2c1ncn2[C@H]1C[C@@H](O)[C@@H](CO)O1 [CBK201169] | 162.834 | –
CCCCOc1ccc(C(=O)N(C)c2ccc(CCC)cc2)cc1 [CBK161619] | 73.3907 | –
Cc1nn(C)c(C)c1CC(=O)N1CCc2c(sc3ncnc(N)c23)C1 [CBK306065] | 109.558 | –
CC(C)c1ccc(S(=O)(=O)N(CCC#N)Cc2ccccc2)cc1 [CBK043565] | 106.553 | –
O=C1NCCCC12CCN(Cc1cccc3cccnc13)CC2 [CBK284826] | 157.433 | –
Cc1nc2c(c(=O)n1C)CN(Cc1cc(=O)n3cccc(O)c3n1)C2 [CBK306991] | 138.174 | –
COc1ccccc1C(NC(=O)C1CCN(C(=O)OC(C)C)CC1)c1ccccn1 (stereo not drawn) [CBK059649] | 106.777 | –
CSCCCNC(=O)N(C)C1CCN(C)C1 (stereo not drawn) [CBK155995] | 108.69 | –
Cc1ccc(NC2=N[C@H]3[C@@H](O)[C@H](O)C[C@H](C(=O)N4CCCCC4)[C@H]3S2)cc1 [CBK288951] | 132.76 | –
O=C(O)c1cc(C=Cc2ccc(Cl)c([N+](=O)[O-])c2)nc2ccccc12 [CBK297495] | 125.106 | –
CN1CCC2(CC1)NCCc1c2ccn1S(=O)(=O)c1cccc2c(N(C)C)cccc12 [CBK061633C] | 80.112 | –
CCOC(=O)c1ccc(Cn2c(-c3ccccc3)nnc2-c2ccccc2)o1 [CBK267691] | 105.378 | –
O=[N+]([O-])c1ccc(NCCNc2nc3ccccc3nc2N2CCOCC2)cc1 [CBK266342] | 55.4656 | –
COCCCn1c(CCC(=O)O)ccc1-c1ccc(Br)cc1 [CBK268015] | 121.978 | –
Cc1ccccc1-n1ncc2c(=O)n(CC(=O)N3CCCCC3)cnc21 [CBK287688] | 130.487 | –
CCc1ccccc1OCC(=O)Nc1ccc([N+](=O)[O-])cc1OC [CBK265665] | 100 | –
[2H]C(C(=O)NCc1ccc2c(c1)CCC2)n1cc(-c2ccc(CN3CCC(C)CC3)cc2)nn1 (stereo not drawn) [CBK166081-L1] | 174.729 | –
O=C(NCCN1CCOCC1)c1cc(-c2ccccc2)on1 [CBK267479] | 135.453 | –
CN(C)S(=O)(=O)N(CC(=O)N1CCN(Cc2ccc3c(c2)OCO3)CC1)c1ccccc1 [CBK267994] | 92.1691 | –
Cc1cccc(C(=O)N2CCC(N(C)Cc3ccc(-c4ccc(S(C)(=O)=O)cc4)nc3)CC2)n1 [CBK165937T] | 116.193 | –
O=C(c1cccnc1)C1CCN(C(=O)Cc2ccsc2)CC1 [CBK283517] | 128.529 | –
O=C(C1CCOCC1)N1CCCC(c2cc3cccnc3[nH]2)C1 (stereo not drawn) [CBK284941] | 118.902 | –
COC(=O)c1cc(S(N)(=O)=O)c(C)o1 [CBK113185] | 106.179 | –

Molecules from the list above containing a nitro group on carbon:
Structure (SMILES) | % of control remaining [%] | % of control remaining (Bulk GFP fluorescence) [%]
O=C(O)c1cc(C=Cc2ccc(Cl)c([N+](=O)[O-])c2)nc2ccccc12 [CBK297495] | 125.106 | –
O=[N+]([O-])c1ccc(NCCNc2nc3ccccc3nc2N2CCOCC2)cc1 [CBK266342] | 55.4656 | –
CCc1ccccc1OCC(=O)Nc1ccc([N+](=O)[O-])cc1OC [CBK265665] | 100 | –

(next part)

Structure (SMILES) | % of control remaining [%] | % of control remaining (Bulk GFP fluorescence) [%]
CCOC(=O)c1c(NC(=O)CSc2nc[nH]n2)sc2c1CCCCC2 [CBK267231] | 144.837 | –
O=C(/C=C/c1ccccc1)Nc1cccc(C(=O)O)c1 [CBK287193] | 121.064 | –
O=C(NCCN1CCOCC1)c1ccc(-c2ccco2)nc1NCc1cccnc1 [CBK076112] | 104.247 | –
CCC(=O)Nc1nonc1-c1nc2ccccc2n1Cc1ccc(F)cc1Cl [CBK269608] | 176.092 | –
Cc1nn(C)c(C)c1CCNC(=O)CC1CCCCN1C (stereo not drawn) [CBK281774] | 124.687 | –
O=C1CCCN1CCCNc1ncnc2c1cnn2-c1ccc(Cl)cc1 [CBK265838] | 159.378 | –
O=C(CSc1nc2ccccc2c(=O)[nH]1)Nc1ccc(Cl)c(C(=O)O)c1 [CBK268246] | 127.18 | –
Cc1ccc(-c2n[nH]c(=S)n2CCC(=O)NC(C)c2ccc3c(c2)CCCC3)cc1 (stereo not drawn) [CBK295666] | 98.3994 | –
COc1ccc(C2CC(c3ccc(Cl)cc3)Nc3ncnn32)c(OC)c1 (stereo not drawn) [CBK287848] | 135.254 | –
Cc1cc(C)c(-c2csc(NS(=O)(=O)c3cccc(C(=O)O)c3)n2)cc1C [CBK296698] | 125.772 | –
CC1CCC(C(N)=O)CN1C(=O)c1cc(Br)c[nH]1 (stereo not drawn) [CBK305769] | 127.547 | –
O=C(Nc1ccc2oc(-c3ccccc3)nc2c1)C1CCCO1 (stereo not drawn) [CBK107724] | 113.266 | –
COCCNC(=O)c1sc2ccccc2c1C1CCN(Cc2ccc3ncccc3c2)C1 (stereo not drawn) [CBK285680] | 116.469 | –
CCOC(=O)c1c(NC(=O)CSc2nc3ccccc3s2)sc2c1CCC2 [CBK263220] | 127.908 | –
CCc1c(Cc2[nH]c(C)c(C(C)=O)c2C)[nH]c(C(=O)O)c1C [CBK286717] | 122.741 | –
O=C(NC(=S)Nc1ccc2oc(-c3cncc(Br)c3)nc2c1)c1cc([N+](=O)[O-])ccc1N1CCOCC1 [CBK268864] | 74.9171 | –
Cc1ccc(S(=O)(=O)N(CCO)CC(O)Cn2c3ccc(Cl)cc3c3cc(Cl)ccc32)cc1 (stereo not drawn) [CBK263392] | 64.7632 | –
O=C(NC1CCCCC1)c1cc(NC(=O)c2ccccc2C(=O)O)ccc1Cl [CBK287062] | 120.168 | –
O=[N+]([O-])c1ccc2c(c1)nnn2CN1CCCCC1 [CBK261663] | 118.243 | –
CN1N=C(c2ccccc2)CC1=O [CBK067774] | 107.613 | –
COCOc1ccc(-c2ncc(OCCN3CCCC3=O)nc2NC(C)=O)cc1 [CBK145253] | 130.285 | –
Cc1ccc(S(=O)(=O)NC2c3cccc4cccc(c34)C2Sc2nncn2N)cc1 (stereo not drawn) [CBK265873] | 93.2359 | –
C#CCOc1ccc(/C=C2/SC(=S)N(CCC(=O)O)C2=O)cc1 [CBK265667] | 126.951 | –
Cc1cc(Cl)c(OCCn2c3ccccc3c3ccccc32)c(Br)c1 [CBK264826] | 100 | –
NC(=O)CN1CCCc2ccccc21 [CBK138343] | 109.969 | –
O=C(O)CCC(=O)N1N=C(c2ccccc2)CC1c1ccc2nccnc2c1 (stereo not drawn) [CBK266650] | 116.834 | –

Among those listed so far, these have a tert-butyl group:
Structure (SMILES) | % of control remaining [%] | % of control remaining (Bulk GFP fluorescence) [%]
Cc1cccc(CN2CCC(NC(=O)c3cn(C(C)(C)C)nn3)CC2)c1 [CBK305927] | 101.182 | –
C=CCn1c(-c2sc(NC(=O)CNC(=O)C(C)(C)C)nc2C)n[nH]c1=S [CBK297907] | 108.538 | –
